# Results taken from the supplement of paper PMC8728848.
# The other results are listed elsewhere or left out.
# B1: Mnn9-2N3 (Aspergillus fumigatus) (protein)
# chain: MAVARRMRRTNPITLLLAAILAIGFFIFVLSPSTTSASPVKAGSASSSSTSQQRREDNAAENPLSPPTKPFFKSQPVRHDGQQAPPPVVQYNLNQLSSTSTSAANGERILILTPMARFVPEYWDNVVKLTYPHELISIGFIIPKNKEGNAALAALEAAIAKTQSGPIDKRFASISILRQDFEPPLQSQDEKERHKISNQKARRESMSRARNSLLFTTLGPATAWVLWLDADIVETPPTLIQDLTAHDHPVLVPNCYQRYYNSEKKKMDVRPYDYNSWIDSSTAQSMAAEMGPDEILLEGYAEMPTYRTLMAHLADTANPNPKKVIELDGVGGTALMVKAEVHRDGAMFPAFPFYHLVETEGFAKMAKRLGYSVYGLPDYFVSRNFFFFFFFFFFG
# How the values were obtained:
# Test in all cases: glycan array binding signal (z-score within array); higher = stronger binding
# Conditions in all cases: glycan notation: IUPAC condensed, linker removed
# [1] = molecular target: Fuc(a1-2)[Gal(a1-3)]Gal(b1-4)GlcNAc(b1-2)Man(a1-3)[Fuc(a1-2)[Gal(a1-3)]Gal(b1-4)GlcNAc(b1-2)Man(a1-6)]Man(b1-4)GlcNAc(b1-4)[Fuc(a1-6)]GlcNAc
# Summary of the method: (§1)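 The Consortium for Functional Glycomics database supplied 3228 glycan arrays, of which those lacking an available protein sequence were dropped. The binding signal, a within-array Z-score, was averaged across arrays of the same protein sequence and across linkers. Negative scores can be read as non-binding.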
# [2] = molecular target: Fuc(a1-2)[Gal(a1-3)]Gal(b1-4)GlcNAc(b1-3)GalNAc
# Summary of the method: as §1
# [3] = molecular target: Fuc(a1-2)[Gal(a1-3)]Gal(b1-4)GlcNAc(b1-3)[Fuc(a1-2)[Gal(a1-3)]Gal(b1-4)GlcNAc(b1-6)]GalNAc
# Summary of the method: as §1
# [4] = molecular target: Fuc(a1-2)[Gal(a1-3)]Gal(b1-4)GlcNAc(b1-6)GalNAc
# Summary of the method: as §1
# [5] = molecular target: Fuc(a1-2)[Gal(a1-3)]Gal(b1-4)[Fuc(a1-3)]Glc
# Summary of the method: as §1
# [6] = molecular target: Fuc(a1-2)[Gal(a1-3)]Gal(b1-4)[Fuc(a1-3)]GlcNAc
# Summary of the method: as §1
# [7] = molecular target: Fuc(a1-2)[Gal(a1-3)]Gal(b1-4)[Fuc(a1-3)]GlcNAc(b1-3)GalNAc
# Summary of the method: as §1
# [8] = molecular target: Fuc(a1-2)[Gal(a1-4)]Gal(b1-4)GlcNAc
# Summary of the method: as §1
# [9] = molecular target: Fuc(a1-2)[GalNAc(a1-3)]Gal
# Summary of the method: as §1
# [10] = molecular target: Fuc(a1-2)[GalNAc(a1-3)]Gal(b1-3)GalNAc(a1-3)[Fuc(a1-2)]Gal(b1-4)GlcNAc
# Summary of the method: as §1
# [11] = molecular target: Fuc(a1-2)[GalNAc(a1-3)]Gal(b1-3)GalNAc(b1-3)Gal(a1-4)Gal(b1-4)Glc
# Summary of the method: as §1
# [12] = molecular target: Fuc(a1-2)[GalNAc(a1-3)]Gal(b1-3)GlcNAc
# Summary of the method: as §1
# [13] = molecular target: Fuc(a1-2)[GalNAc(a1-3)]Gal(b1-3)GlcNAc(b1-2)Man(a1-3)[Fuc(a1-2)[GalNAc(a1-3)]Gal(b1-3)GlcNAc(b1-2)Man(a1-6)]Man(b1-4)GlcNAc(b1-4)GlcNAc
# Summary of the method: as §1
# [14] = molecular target: Fuc(a1-2)[GalNAc(a1-3)]Gal(b1-3)GlcNAc(b1-2)Man(a1-3)[Fuc(a1-2)[GalNAc(a1-3)]Gal(b1-3)GlcNAc(b1-2)Man(a1-6)]Man(b1-4)GlcNAc(b1-4)[Fuc(a1-6)]GlcNAc
# Summary of the method: as §1
# [15] = molecular target: Fuc(a1-2)[GalNAc(a1-3)]Gal(b1-3)GlcNAc(b1-3)GalNAc
# Summary of the method: as §1
# [16] = molecular target: Fuc(a1-2)[GalNAc(a1-3)]Gal(b1-3)GlcNAc(b1-6)GalNAc
# Summary of the method: as §1
# [17] = molecular target: Fuc(a1-2)[GalNAc(a1-3)]Gal(b1-4)Glc
# Summary of the method: as §1
# [18] = molecular target: Fuc(a1-2)[GalNAc(a1-3)]Gal(b1-4)GlcNAc
# Summary of the method: as §1
# [19] = molecular target: Fuc(a1-2)[GalNAc(a1-3)]Gal(b1-4)GlcNAc(b1-2)Man
# Summary of the method: as §1
# [20] = molecular target: Fuc(a1-2)[GalNAc(a1-3)]Gal(b1-4)GlcNAc(b1-2)Man(a1-3)[Fuc(a1-2)[GalNAc(a1-3)]Gal(b1-4)GlcNAc(b1-2)Man(a1-6)]Man(b1-4)GlcNAc(b1-4)GlcNAc
# Summary of the method: as §1
# [21] = molecular target: Fuc(a1-2)[GalNAc(a1-3)]Gal(b1-4)GlcNAc(b1-2)Man(a1-3)[Fuc(a1-2)[GalNAc(a1-3)]Gal(b1-4)GlcNAc(b1-2)Man(a1-6)]Man(b1-4)GlcNAc(b1-4)[Fuc(a1-6)]GlcNAc
# Summary of the method: as §1
# [22] = molecular target: Fuc(a1-2)[GalNAc(a1-3)]Gal(b1-4)GlcNAc(b1-3)Gal(b1-4)GlcNAc
# Summary of the method: as §1
# [23] = molecular target: Fuc(a1-2)[GalNAc(a1-3)]Gal(b1-4)GlcNAc(b1-3)Gal(b1-4)GlcNAc(b1-3)Gal(b1-4)GlcNAc
# Summary of the method: as §1
# [24] = molecular target: Fuc(a1-2)[GalNAc(a1-3)]Gal(b1-4)GlcNAc(b1-3)GalNAc
# Summary of the method: as §1
# [25] = molecular target: Fuc(a1-2)[GalNAc(a1-3)]Gal(b1-4)GlcNAc(b1-3)[Fuc(a1-2)[GalNAc(a1-3)]Gal(b1-4)GlcNAc(b1-6)]GalNAc
# Summary of the method: as §1
# [26] = molecular target: Fuc(a1-2)[GalNAc(a1-3)]Gal(b1-4)GlcNAc(b1-6)GalNAc
# Summary of the method: as §1
# [27] = molecular target: Fuc(a1-2)[GalNAc(a1-3)]Gal(b1-4)[Fuc(a1-3)]GlcNAc
# Summary of the method: as §1
# [28] = molecular target: Fuc(a1-2)[GalNAc(a1-3)]Gal(b1-4)[Fuc(a1-3)]GlcNAc(b1-3)GalNAc
# Summary of the method: as §1
# [29] = molecular target: Fuc(a1-2)[GalNAc(a1-4)]Gal(b1-4)GlcNAc
# Summary of the method: as §1
# [30] = molecular target: Fuc(a1-2)[GalNAc(b1-3)]Gal
# Summary of the method: as §1
binder,measurement,setting,value
B1,glycan array binding signal (z-score),[1],-0.348
same,glycan array binding signal (z-score),[2],-0.771
same,glycan array binding signal (z-score),[3],-0.601
same,glycan array binding signal (z-score),[4],-2.06
same,glycan array binding signal (z-score),[5],1.77
same,glycan array binding signal (z-score),[6],-0.761
same,glycan array binding signal (z-score),[7],-0.097
same,glycan array binding signal (z-score),[8],-0.286
same,glycan array binding signal (z-score),[9],-0.171
same,glycan array binding signal (z-score),[10],-1.58
same,glycan array binding signal (z-score),[11],0.008
same,glycan array binding signal (z-score),[12],-1.58
same,glycan array binding signal (z-score),[13],1.75
same,glycan array binding signal (z-score),[14],0.504
same,glycan array binding signal (z-score),[15],-0.032
same,glycan array binding signal (z-score),[16],1.61
same,glycan array binding signal (z-score),[17],0.177
same,glycan array binding signal (z-score),[18],0.402
same,glycan array binding signal (z-score),[19],0.325
same,glycan array binding signal (z-score),[20],0.31
same,glycan array binding signal (z-score),[21],-0.585
same,glycan array binding signal (z-score),[22],-0.282
same,glycan array binding signal (z-score),[23],-1.18
same,glycan array binding signal (z-score),[24],-0.66
same,glycan array binding signal (z-score),[25],-0.67
same,glycan array binding signal (z-score),[26],2.39
same,glycan array binding signal (z-score),[27],-0.297
same,glycan array binding signal (z-score),[28],-2.19
same,glycan array binding signal (z-score),[29],0.17
same,glycan array binding signal (z-score),[30],0.1

# 2 entries drawn at random from those above:
binder,measurement,setting,value
B1,glycan array binding signal (z-score),[18],0.402
same,glycan array binding signal (z-score),[24],-0.66
